# Laboratory results: patent publication US7501113B2, “Aerosol formulations and aerosol delivery of buprenorphine” (priority 2003, dated 2009)
# At least one read-out could not be matched to a standard name with certainty.
# Assay: Aerosol particle size determination, 10-stage MOUDI at 30 L/min with USP throat
# Format: physicochemical
# Protocol: Aerosol particle size was determined using the 10-stage MOUDI operated at 30 L/min. The sample foils were placed in beakers, 10 mL of sample solvent was added, and the beakers swirled thoroughly. For the USP throat, 10 mL of sample solvent was added and shaken thoroughly. Wall losses were assessed by washing the MOUDI walls with a Kimwipe dipped in sample solvent. The same 10 mL of mobile phase was used to wash the walls of all the stages. The collected samples were analyzed.
# Aerosol particle size was determined using the 10-stage MOUDI operated at 30 L/min. […] For the USP throat, 5 mL of sample solvent was added and shaken thoroughly. Wall losses were assessed by washing the MOUDI walls with a Kimwipe dipped in sample solvent. […] The collected samples were analyzed using the assay method.
# Aerosol particle size was determined using the 10-stage MOUDI operated at 30 L/min. […] Wall losses were assessed by washing the MOUDI walls with a Kimwipe dipped in sample solvent. […] The collected samples were analyzed using the assay method. […]
# Aerosol particle size was determined using the 10-stage MOUDI operated at 30 L/min. […] Wall losses were assessed by washing the MOUDI walls with a Kimwipe dipped in sample solvent. […] The collected samples were analyzed using the assay method.
# Aerosol particle size was determined using the 10-stage MOUDI operated at 30 L/min. […] The collected samples were analyzed using the assay method.
Compound,"average recovery (triazolam 0.1% in PG, target resistance 0.605 ohms, approximately 90 J, runs 5-9)","average recovery (zolpidem 0.2% in PG, target resistance 0.600 ohms, approximately 75 J, runs 5-8)"
"Cc1nnc2n1-c1ccc(Cl)cc1C(c1ccccc1Cl)=NC2 [Triazolam, 8-chloro-6-(2-chlorophenyl)-1-methyl-4H-[1,2,4]triazolo[4,3-a][1,4]benzodiazepine]",exceeded 99%,–
"Cc1ccc(-c2nc3ccc(C)cn3c2CC(=O)N(C)C)cc1 [Zolpidem, N,N,6-Trimethyl-2-(4-methylphenyl)-imidazo[1,2-a]pyridine-3-acetamide]",–,exceeded 90%
